# Test results published in US7754220B2, “Methods of inhibiting secretion of follicle-stimulating hormone and testosterone” (Takeda Pharmaceutical Company Limited, priority 2003, dated 2010).
# Several values for one entry are separate records, joined by “and”; a condition that tells them apart may be missing. Equal entries are not always repeated. At least one peptide structure holds a part that was inferred or is arguable (an end, a ring closure or a residue).
# How the values were obtained:
# Assay type in all cases: in vivo, rat
# [1] = test system: testosterone; assay: Sustained administration in mature male rats: plasma testosterone; settings: male Copenhagen rats, sustained s.c. administration 6.0 nmol/hr, 7 days, vs distilled water group; FIG. 11
# [2] = test system: FSH (follicle-stimulating hormone); assay: Gonadotropin-releasing effect in mature male rats: plasma FSH; settings: male Wistar rats 11 weeks old, 35 nmol s.c., FIG. 6
# [3] = test system: LH (luteinizing hormone); assay: Gonadotropin-releasing effect in mature male rats: plasma LH; settings: male Wistar rats 11 weeks old, 35 nmol s.c., FIG. 7
# [4] = test system: FSH (follicle-stimulating hormone); assay: Gonadotropin-releasing effect in immature rats: plasma FSH; settings: immature female Wistar rats, 6.67 nmol s.c., FIG. 3
# [5] = test system: estradiol; assay: Level of estradiol in plasma by radioimmunoassay, ovulation induction study; settings: Groups B and C: human metastin 20 and 6.67 nmol/animal s.c., eCG-primed immature rats, 24-25 h after dosing, FIG. 1
# [6] = test system: FSH (follicle-stimulating hormone); assay: Sustained administration in mature male rats: plasma FSH; settings: male Copenhagen rats, sustained s.c. administration 6.0 nmol/hr, 7 days, vs distilled water group; FIG. 9
# [7] = Sustained administration in mature male rats: testis weight; settings: male Copenhagen rats, sustained s.c. administration 6.0 nmol/hr, 7 days, vs distilled water group; FIG. 12
# [8] = test system: progesterone; assay: Gonadotropin-releasing effect in immature rats: plasma progesterone; settings: immature female Wistar rats, 6.67 nmol s.c., FIG. 5
# [9] = test system: LH (luteinizing hormone); assay: Sustained administration in mature male rats: plasma LH; settings: male Copenhagen rats, sustained s.c. administration 6.0 nmol/hr, 7 days, vs distilled water group; FIG. 10
# [10] = test system: LH (luteinizing hormone); assay: Gonadotropin-releasing effect in immature rats: plasma LH; settings: immature female Wistar rats, 6.67 nmol s.c., FIG. 4
# [11] = test system: testosterone; assay: Gonadotropin-releasing effect in mature male rats: plasma testosterone; settings: male Wistar rats 11 weeks old, 35 nmol s.c., FIG. 8
# [12] = test system: immature rats; assay: Induction of ovulation in immature rats (number of ova); settings: for number of ova: 47-48 h after eCG 10 IU, ova counted 24-25 h later, individual rats 1-5; for Average number of ova: eCG-primed immature female Wistar rats, five rats
# [13] = test system: progesterone; assay: Level of progesterone in plasma by radioimmunoassay, ovulation induction study; settings: Groups B and C: human metastin 20 and 6.67 nmol/animal s.c., eCG-primed immature rats, 24-25 h after dosing, FIG. 2
# [14] = Group B: human metastin 20 nmol/animal s.c.
# [15] = Group C: human metastin 6.67 nmol/animal s.c.
compound,measurement,setting,value
CC[C@H](C)[C@H](NC(=O)[C@H](CCC(N)=O)NC(=O)[C@H](CCCNC(=N)N)NC(=O)[C@H](CO)NC(=O)[C@H](Cc1c[nH]cn1)NC(=O)[C@@H]1CCCN1C(=O)[C@H](C)NC(=O)[C@H](CO)NC(=O)[C@H](CC(C)C)NC(=O)CNC(=O)[C@@H]1CCCN1C(=O)[C@H](CCC(N)=O)NC(=O)[C@H](CCC(N)=O)NC(=O)[C@H](CCCNC(=N)N)NC(=O)[C@H](CO)NC(=O)CNC(=O)[C@H](CO)NC(=O)[C@H](CO)NC(=O)[C@H](CCC(=O)O)NC(=O)[C@@H]1CCCN1C(=O)[C@@H]1CCCN1C(=O)[C@@H]1CCCN1C(=O)[C@H](CO)NC(=O)[C@H](CC(C)C)NC(=O)[C@H](CO)NC(=O)[C@@H](NC(=O)CN)[C@@H](C)O)C(=O)N1CCC[C@H]1C(=O)N[C@@H](C)C(=O)N1CCC[C@H]1C(=O)N[C@@H](CCC(N)=O)C(=O)NCC(=O)N[C@@H](C)C(=O)N[C@H](C(=O)N[C@@H](CC(C)C)C(=O)N[C@H](C(=O)N[C@@H](CCC(N)=O)C(=O)N[C@@H](CCCNC(=N)N)C(=O)N[C@@H](CCC(=O)O)C(=O)N[C@@H](CCCCN)C(=O)N[C@@H](CC(=O)O)C(=O)N[C@@H](CC(C)C)C(=O)N1CCC[C@H]1C(=O)N[C@@H](CC(N)=O)C(=O)N[C@@H](Cc1ccc(O)cc1)C(=O)N[C@@H](CC(N)=O)C(=O)N[C@@H](Cc1c[nH]c2ccccc12)C(=O)N[C@@H](CC(N)=O)C(=O)N[C@@H](CO)C(=O)N[C@@H](Cc1ccccc1)C(=O)NCC(=O)N[C@@H](CC(C)C)C(=O)N[C@@H](CCCNC(=N)N)C(=O)N[C@@H](Cc1ccccc1)C(N)=O)C(C)C)C(C)C [Human metastin],testosterone level in rat plasma,[1],significantly decreased
same,change of plasma FSH level,[2]; 1 hour after injection,significantly increase
same,change of plasma FSH level,[2]; 4 hours after injection,a higher state
same,time at which plasma FSH level reached the maximum,[2],2 h
same,change of plasma LH level,[3]; 1 hour after injection,significantly increase
same,change of plasma LH level,[3]; 4 hours after injection,higher than the level prior to the injection
same,time at which plasma LH level reached the maximum,[3],2 h
same,change of plasma FSH level,[4]; 1 hour after injection,significantly increase
same,change of plasma FSH level,[4]; 4 hours after injection,higher than the level prior to the injection
same,time at which plasma FSH level reached the maximum,[4],2 h
same,level of estradiol contained in plasma,[5],no difference
same,level of estradiol contained in plasma,[5]; listed as metastin,very low
same,FSH level in rat plasma,[6],significantly decreased
same,weight of rat testis (percentage % based on the body weight),[7],significantly decreased
same,change of plasma progesterone level,[8]; 1 hour after injection,gently increase
same,change of plasma progesterone level,[8]; 2 hours after injection vs prior to injection,significantly higher level
same,LH level in rat plasma,[9],any significant change was not detectable
same,change of plasma LH level,[10]; 1 hour after injection,significantly increase
same,change of plasma LH level,[10]; 4 hours after injection,higher than the level prior to the injection
same,time at which plasma LH level reached the maximum,[10],2 h
same,change of plasma testosterone level,[11]; 2 and 4 hours after injection,higher than the level prior to the injection
same,change of plasma testosterone level,[11]; 1 hour after injection,rapid increase
same,number of ova,[12]; [14],29 and 56 and 17 and 25 and 32
same,Average number of ova,[12]; [14],31.8
same,number of ova,[12]; [15],29 and 39 and 32 and 22 and 16
same,Average number of ova,[12]; [15],27.6
same,level of progesterone contained in plasma,[13],approximately half that of Group A
same,level of progesterone contained in plasma,[13]; listed as metastin,increased
